Measurements as given in article PMC11905881.
pKd: −log10 of the molar value. Construct, isoform or probe ends are uncertain for at least one entry.

Target: lysozyme (UniProt P00698)
Test: binding assay
Settings: free aptamer, published value; SPR: PBST (10 mM phosphate buffered saline, pH 7.4, 0.01% Tween 20), 25 °C; nanoparticles immobilized on carboxymethyl dextran Au chips, protein 4-64 nM; n = 3; commercial protein; single-stranded DNA

ATCAGGGCTAAAGAGTGCAGAGTTACTTAG [lysozyme aptamer (unmodified)]
pKd: 7.51
